Among all 320,000 compounds or so, about 2,100 (0.66%) were called active. This list was built around the results that the source calls inconclusive (neither active nor inactive); the mix of calls is not that of the screen. Calls come from the whole dose curve; as a rule, active = well fitted inhibition curve with a large enough effect in the signal ratio, with a control signal flat (not every such curve was filed as active); inconclusive = small, poorly fitted or top-dose-only effect, or effect the other way, or a change in a side signal; inactive = flat fitted curve, though single readings scatter; the % refers to the signal ratio. A potency beside an inconclusive call is a rough fit, not a confirmed value.
Test: qHTS Assay for Lipid Storage Modulators in Drosophila S3 Cells
Conditions: BODIPY lipid droplet fluorescence, 18-24 h, cells fed with added oleic acid; lipid storage change, negative = inhibition: at 46.1 µM (top of the series) unless noted
In short: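 Laser-scanning cytometry quantifies lipid droplet accumulation (500–530 nm total intensity; droplet/cell object ratio) in oleic acid-fed (400 uM added) Drosophila S3 cells treated with a concentration series. 20 uM Triacsin C defined 100% inhibition.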
% is set by controls: 0 for no effect and ±100 for the full control effect; potency is the fitted concentration of half-maximal effect.

Lipid storage change, negative = inhibition, inactive:
CC1CN(C(=O)c2ccc(COc3ccccc3Br)o2)CC(C)O1 (stereo not drawn) 15.9%, O=C(Nc1cc(=O)[nH]c2ncnn12)c1ccccc1 5.81%

Lipid storage change, negative = inhibition, inconclusive:
COc1ccccc1OCCNC1CCCC1 8.47%, CCOc1ccc(N(CC)C(=O)CCNC(=O)Cn2ccc3ccccc3c2=O)cc1 30.7%, Cn1c2ccccc2c2c(C(=O)O)cn(C3CCCC3)c(=O)c21 9.76%, COc1ccc(CSc2nnc(-c3ccncc3)n2C)cc1F 37.6%, NC(=O)CSc1nc2cccnc2n1-c1ccc(F)cc1 -24.2%, CN(C)C(=O)c1nc2ccc(Cl)cn2c1CN1CCN(c2ncccn2)CC1 29.1%, N#Cc1nc(-c2ccc(F)cc2)oc1NCc1cccc2c1OCO2 30.3%, CCOC(=O)C1(Cc2ccc(OC)cc2)CCN(C(=O)CN2CCCCC2=O)CC1 21.2%, CC(=O)N1c2ccccc2NC2=C(C(=O)CCC2)C1c1ccco1 (stereo not drawn) 7.8%, COc1ccccc1-n1c2nc3ccccc3nc2c2c(=O)n(-c3cc(C)cc(C)c3)cnc21 17.7%, O=C(/C=C/c1ccccc1)c1ccc2c3c(cccc13)CC2 -31.6%, CCn1nc(C)c(CNC(=O)C2CCC(=O)N(CCc3ccc(Cl)cc3)C2)c1C (stereo not drawn) -56.4%, CCCCN(C(=O)C(C)Oc1cccc(Cl)c1)c1c(N)n(CCC)c(=O)[nH]c1=O (stereo not drawn) 12.6%, CC1CCc2sc(C(=O)NNS(=O)(=O)c3ccc(F)c(F)c3F)cc2C1 (stereo not drawn) 35.5%, COc1ccc(C2(c3ccc(OC)cc3)NC(=O)NC2=O)cc1 -113%, CC(C)(C)CC(C)(C)NC1=CC(=O)OC12CCCCC2 5.24%, COc1cccc(/C=N/NC(=O)CCn2cnc3ccccc32)c1 7.34%, CCOC(=O)c1ccc(N2C(=O)C3CC=C(C)CC3C2=O)cc1 (stereo not drawn) 0.439%, CC(=O)C1=C(O)CC(c2ccccc2)CC1=NCCc1ccccc1 (stereo not drawn) 0.506%, Cc1cc(C)c(C#N)c(SCC(=O)c2cccs2)n1 58.8%, COC(=O)c1ccccc1NC(=S)N(Cc1ccc2c(c1)OCO2)Cc1cc2ccc(C)cc2[nH]c1=O 7.52%, CCC(C)(C)NC(=O)c1ccc2c(c1)OCCO2 40.5%

Potency, inconclusive:
Cc1ccc(NC(=O)C/C(N)=N/OC(=O)Nc2cccc(C)c2)cc1 29.1 µM [activator, partial curve, poor fit], Cc1ccccc1OCC(=O)Nc1sc(C(=O)Nc2cccc(C)c2C)c(C)c1C#N 29.1 µM [activator, single point], O=C(Nc1sc2c(c1-c1nc3ccccc3[nH]1)CCCC2)C1CCCC1 2.31 µM [activator, partial curve, poor fit], Cc1ccc(S(=O)(=O)N(C)c2ccc(OC(C)C(=O)N3CCCC3)cc2)cc1C (stereo not drawn) 2.06 µM [activator, full curve, poor fit], c1c(C2CCCCC2)n[nH]c1CN1CCCCC1 0.82 µM [falling, full curve, poor fit], COc1ccc(-c2cc(C(=O)N(C)Cc3ccccc3F)c3ccccc3n2)cc1OC 6.51 µM [falling, single point], C/C(=N\NC(=O)c1ccc(Cn2cc(Br)cn2)o1)c1cccc(NC(=O)C(C)C)c1 0.13 µM [activator, full curve, poor fit], Fc1ccc(CNc2ccc(N3CCN(Cc4ccccc4)CC3)cc2)cc1 0.326 µM [activator, partial curve, poor fit], O=S1(=O)N=C(Nc2ccc(N3CCOCC3)c(Cl)c2)c2ccccc21 29.1 µM [falling, single point], Cc1ccc(NC(=O)C2=C(O)CCn3c2nc2ccccc23)cc1 6.51 µM [activator, single point], COc1ccc(C(=O)N2CCN(Cc3cc(OC)c(O)c(OC)c3)CC2)cc1OC 3.66 µM [activator, single point]

Potency, active:
O=C(CN1C(=O)/C(=C/c2ccco2)SC1=S)Nc1ccc(C(=O)O)c(O)c1 20.6 µM, Cc1ccc(S(=O)(=O)C2(C(=O)N3CCN(c4ccccc4F)CC3)CC2)cc1 0.731 µM

outcome, inactive:
Cc1cc2c(cc1S(=O)(=O)NCc1ccccc1)n(C)c(=O)c(=O)n2C inactive [at 46.1 µM]

Source: PubChem BioAssay AID2685 (National Center for Advancing Translational Sciences (NCATS), 2010)
